## Library screening results

Protein sequences, listed by entry. Tags and fused reporters are not part of them.
UniProt E9BF75, entry or part of it: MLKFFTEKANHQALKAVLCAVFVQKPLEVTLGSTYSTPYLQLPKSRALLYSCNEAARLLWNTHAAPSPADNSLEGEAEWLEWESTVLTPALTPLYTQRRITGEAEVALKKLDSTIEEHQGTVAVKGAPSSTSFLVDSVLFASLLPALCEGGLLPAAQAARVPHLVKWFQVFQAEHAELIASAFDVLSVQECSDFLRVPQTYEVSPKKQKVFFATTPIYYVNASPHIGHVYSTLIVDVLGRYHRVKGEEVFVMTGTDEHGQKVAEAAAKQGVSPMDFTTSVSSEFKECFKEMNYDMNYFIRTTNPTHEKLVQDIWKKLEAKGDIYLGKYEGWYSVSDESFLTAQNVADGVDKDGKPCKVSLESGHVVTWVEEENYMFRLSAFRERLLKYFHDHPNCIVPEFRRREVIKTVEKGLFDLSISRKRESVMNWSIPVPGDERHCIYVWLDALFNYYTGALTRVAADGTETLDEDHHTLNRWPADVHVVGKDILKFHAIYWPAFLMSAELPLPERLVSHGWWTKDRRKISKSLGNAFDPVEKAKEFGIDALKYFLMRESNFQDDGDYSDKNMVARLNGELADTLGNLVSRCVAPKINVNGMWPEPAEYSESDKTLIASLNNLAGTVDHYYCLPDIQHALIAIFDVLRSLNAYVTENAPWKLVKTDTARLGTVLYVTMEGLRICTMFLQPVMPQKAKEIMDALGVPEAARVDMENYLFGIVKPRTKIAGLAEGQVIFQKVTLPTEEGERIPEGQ

Source: ChEMBL document CHEMBL3988442, “University of Dundee, Small-Polar-MMV Screening Library” (2021).

A: 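Assay on Mycobacterium tuberculosis, filed only as a heat shock assay from Cornell; the read-out is not stated. The concentration is filed as 10 mM, unlikely as a test dose, so the dose is not known. Higher reads as stronger inhibition (inferred: compounds with an IC50 in retests scored well above the rest). Size under these conditions: about 69,000 compounds, about 930 of them at 50% or above in at least one test.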
B: 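Methionyl-tRNA synthetase (putative), Leishmania donovani (UniProt E9BF75). Primary screen of methionyl-tRNA synthetase; the read-out is not stated. The test concentration is not given. The values are filed as inhibition. About 68,000 compounds were tested under these conditions; 0.035% (about 24) showed 50% or more at least once.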
C: 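Whole-cell assay for inhibitors of Mycobacterium tuberculosis growth, labelled Cornell in the record; the read-out is not stated. The concentration is filed as 10 mM, unlikely as a test dose, so the dose is not known. Higher means stronger inhibition (inferred from two other growth screens of the library). Size under these conditions: about 53,000 compounds, about 900 of them at 50% or above in at least one test.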

Results are percentages, as filed.
The controls that fix the scale are not given in the record; negative values are as filed.
Compounds were drawn at random from those tested, without regard to their results.

compound: COc1ccc(C(C)NCc2ccnn2C)cc1Cn1cccn1 (configuration not stated)
A: -16.11
B: 1.083
C: -6.12

compound: Cc1nc(-c2ccc(NCCc3ccc(O)cc3)nc2)[nH]c(=O)c1C
A: -2.788
B: 21.18
C: 24.39

compound: CN(C)C(=O)N1C[C@@H]2CCCO[C@@H]2[C@H](N(C)Cc2ccco2)C1
B: 12.5

compound: Cc1cc(-n2nc(C)nc2-c2cn(CCN)nn2)ccn1
A: -33.73
B: 15.27
C: 18.97

compound: CCN(CC)CCn1cnc(-c2ccccc2)c1-c1cnc(C)s1
A: -13.77
B: 8.04
C: 17.03

compound: CNC(=O)CN1CCOCC12CCN(CCc1ccccc1)CC2
B: 6.667

compound: [H][C@]12CN(Cc3ccc(F)cc3)C[C@@]1([H])S(=O)(=O)CC[C@@H]2C(=O)N1CCCC1
A: -22.44
C: 22.76

compound: CCOCc1nn(C)c2c1CN(CCO)CC2
A: -5.783
B: -1.558
C: -56.5

compound: CC(C)C(=O)N1C[C@H]2CCCN[C@H]2C1
B: 0.5556

compound: O=C(c1cscn1)N1CCc2c(COCC3CC3)cncc2C1
B: 2.346

compound: Cc1noc(C)c1CN1CCc2cnn(C)c2C1COCC1CC1 (configuration not stated)
B: 14.29

compound: c1cnc(N2CCCC3(CCN(CC4CCOC4)CC3)C2)nc1 (configuration not stated)
B: 8.125

compound: Cc1nc(C2CCCN2CCC(=O)N2CCc3ccccc32)no1 (configuration not stated)
A: -14.05
B: 7.821

compound: CC(C)n1ccnc1C1CCCN(c2cncc(N(C)C)n2)C1 (configuration not stated)
A: -13.35
B: 5.587
C: -2.552

compound: Cc1nc(C)n(CC2CCCN2CCCOc2ccc(C#N)cc2)n1 (configuration not stated)
A: -7.103
B: 26.2

compound: CN(Cc1cn2c(n1)CN(C1CCOCC1)CC2)Cc1ccco1.O=C(O)C(F)(F)F.O=C(O)C(F)(F)F
A: -36.29
C: -24.15

compound: CN1CCN(c2cc(CNC(=O)c3cccnc3O)ccn2)CC1
A: -9.001
B: 19.47

compound: O=C1CCC2(CCCO2)CCN1Cc1noc(C2CCCC2)n1 (configuration not stated)
A: -11.36
B: 10.06
C: -4.364

compound: Cc1cccc(CNC(C)c2ccc(OCC(=O)NC3CC3)cc2)c1 (configuration not stated)
A: -4.059
B: 25.5
C: -50.48